B1: β95Q-L: B8.2.4 TCR point mutant, Vβ-CDR3 95Q to L; CDR3β ASSLTVPPQH (protein)
TCR alpha: AQKITQTQPGMFVQEKEAVTLDCTYDTSDPSYGLFWYKQPSSGEMIFLIYQGSYDQQNATEGRYSLNFQKARKSANLVISASQLGDSAMYFCAMRERTGTASKLTFGTGTRLQVTLDIQNPEPAVYQLKDPRSQDSTLCLFTDFDSQINVPKTMESGTFITDKTVLDMKAMDSKSNGAIAWSNQTSFTCQDIFKETNATYPSSDVPCDATLTEKSFETDMNLNFQNLSVMGLRILLLKVAGFNLLMTLRLWSS
TCR beta: DVKVTQSSRYLVKRTGEKVFLECVQDMDHENMFWYRQDPGLGLRLIYFSYDVKMKEKGDIPEGYSVSREKKERFSLILESASTNQTSMYLCASSLTVPPQHFGDGTRLSILEDLRNVTPPKVSLFEPSKAEIANKQKATLVCLARGFFPDHVELSWWVNGKEVHSGVSTDPQAYKESNYSYCLSSRLRVSATFWHNPRNHFRCQVQFHGLSEEDKWPEGSPKPVTQNISAEAWGRADCGITSASYQQGVLSATILYEILLGKATLYAVLVSTLVVMAMVKRKNS
B2: β95Q-R: B8.2.4 TCR point mutant, Vβ-CDR3 95Q to R (protein)
TCR alpha: AQKITQTQPGMFVQEKEAVTLDCTYDTSDPSYGLFWYKQPSSGEMIFLIYQGSYDQQNATEGRYSLNFQKARKSANLVISASQLGDSAMYFCAMRERTGTASKLTFGTGTRLQVTLDIQNPEPAVYQLKDPRSQDSTLCLFTDFDSQINVPKTMESGTFITDKTVLDMKAMDSKSNGAIAWSNQTSFTCQDIFKETNATYPSSDVPCDATLTEKSFETDMNLNFQNLSVMGLRILLLKVAGFNLLMTLRLWSS
TCR beta: DVKVTQSSRYLVKRTGEKVFLECVQDMDHENMFWYRQDPGLGLRLIYFSYDVKMKEKGDIPEGYSVSREKKERFSLILESASTNQTSMYLCASSRTVPPQHFGDGTRLSILEDLRNVTPPKVSLFEPSKAEIANKQKATLVCLARGFFPDHVELSWWVNGKEVHSGVSTDPQAYKESNYSYCLSSRLRVSATFWHNPRNHFRCQVQFHGLSEEDKWPEGSPKPVTQNISAEAWGRADCGITSASYQQGVLSATILYEILLGKATLYAVLVSTLVVMAMVKRKNS
B3: β95Q-V: B8.2.4 TCR point mutant, Vβ-CDR3 95Q to V; CDR3β ASSVTVPPQH (protein)
TCR alpha: AQKITQTQPGMFVQEKEAVTLDCTYDTSDPSYGLFWYKQPSSGEMIFLIYQGSYDQQNATEGRYSLNFQKARKSANLVISASQLGDSAMYFCAMRERTGTASKLTFGTGTRLQVTLDIQNPEPAVYQLKDPRSQDSTLCLFTDFDSQINVPKTMESGTFITDKTVLDMKAMDSKSNGAIAWSNQTSFTCQDIFKETNATYPSSDVPCDATLTEKSFETDMNLNFQNLSVMGLRILLLKVAGFNLLMTLRLWSS
TCR beta: DVKVTQSSRYLVKRTGEKVFLECVQDMDHENMFWYRQDPGLGLRLIYFSYDVKMKEKGDIPEGYSVSREKKERFSLILESASTNQTSMYLCASSVTVPPQHFGDGTRLSILEDLRNVTPPKVSLFEPSKAEIANKQKATLVCLARGFFPDHVELSWWVNGKEVHSGVSTDPQAYKESNYSYCLSSRLRVSATFWHNPRNHFRCQVQFHGLSEEDKWPEGSPKPVTQNISAEAWGRADCGITSASYQQGVLSATILYEILLGKATLYAVLVSTLVVMAMVKRKNS
B4: β95Q-S: B8.2.4 TCR point mutant, Vβ-CDR3 95Q to S; CDR3β ASSSTVPPQH (protein)
TCR alpha: AQKITQTQPGMFVQEKEAVTLDCTYDTSDPSYGLFWYKQPSSGEMIFLIYQGSYDQQNATEGRYSLNFQKARKSANLVISASQLGDSAMYFCAMRERTGTASKLTFGTGTRLQVTLDIQNPEPAVYQLKDPRSQDSTLCLFTDFDSQINVPKTMESGTFITDKTVLDMKAMDSKSNGAIAWSNQTSFTCQDIFKETNATYPSSDVPCDATLTEKSFETDMNLNFQNLSVMGLRILLLKVAGFNLLMTLRLWSS
TCR beta: DVKVTQSSRYLVKRTGEKVFLECVQDMDHENMFWYRQDPGLGLRLIYFSYDVKMKEKGDIPEGYSVSREKKERFSLILESASTNQTSMYLCASSSTVPPQHFGDGTRLSILEDLRNVTPPKVSLFEPSKAEIANKQKATLVCLARGFFPDHVELSWWVNGKEVHSGVSTDPQAYKESNYSYCLSSRLRVSATFWHNPRNHFRCQVQFHGLSEEDKWPEGSPKPVTQNISAEAWGRADCGITSASYQQGVLSATILYEILLGKATLYAVLVSTLVVMAMVKRKNS
B5: β95Q-N: B8.2.4 TCR point mutant, Vβ-CDR3 95Q to N; CDR3β ASSNTVPPQH (protein)
TCR alpha: AQKITQTQPGMFVQEKEAVTLDCTYDTSDPSYGLFWYKQPSSGEMIFLIYQGSYDQQNATEGRYSLNFQKARKSANLVISASQLGDSAMYFCAMRERTGTASKLTFGTGTRLQVTLDIQNPEPAVYQLKDPRSQDSTLCLFTDFDSQINVPKTMESGTFITDKTVLDMKAMDSKSNGAIAWSNQTSFTCQDIFKETNATYPSSDVPCDATLTEKSFETDMNLNFQNLSVMGLRILLLKVAGFNLLMTLRLWSS
TCR beta: DVKVTQSSRYLVKRTGEKVFLECVQDMDHENMFWYRQDPGLGLRLIYFSYDVKMKEKGDIPEGYSVSREKKERFSLILESASTNQTSMYLCASSNTVPPQHFGDGTRLSILEDLRNVTPPKVSLFEPSKAEIANKQKATLVCLARGFFPDHVELSWWVNGKEVHSGVSTDPQAYKESNYSYCLSSRLRVSATFWHNPRNHFRCQVQFHGLSEEDKWPEGSPKPVTQNISAEAWGRADCGITSASYQQGVLSATILYEILLGKATLYAVLVSTLVVMAMVKRKNS
B6: β95Q-T: B8.2.4 TCR point mutant, Vβ-CDR3 95Q to T; CDR3β ASSTTVPPQH (protein)
TCR alpha: AQKITQTQPGMFVQEKEAVTLDCTYDTSDPSYGLFWYKQPSSGEMIFLIYQGSYDQQNATEGRYSLNFQKARKSANLVISASQLGDSAMYFCAMRERTGTASKLTFGTGTRLQVTLDIQNPEPAVYQLKDPRSQDSTLCLFTDFDSQINVPKTMESGTFITDKTVLDMKAMDSKSNGAIAWSNQTSFTCQDIFKETNATYPSSDVPCDATLTEKSFETDMNLNFQNLSVMGLRILLLKVAGFNLLMTLRLWSS
TCR beta: DVKVTQSSRYLVKRTGEKVFLECVQDMDHENMFWYRQDPGLGLRLIYFSYDVKMKEKGDIPEGYSVSREKKERFSLILESASTNQTSMYLCASSTTVPPQHFGDGTRLSILEDLRNVTPPKVSLFEPSKAEIANKQKATLVCLARGFFPDHVELSWWVNGKEVHSGVSTDPQAYKESNYSYCLSSRLRVSATFWHNPRNHFRCQVQFHGLSEEDKWPEGSPKPVTQNISAEAWGRADCGITSASYQQGVLSATILYEILLGKATLYAVLVSTLVVMAMVKRKNS
B7: β95Q-P: B8.2.4 TCR point mutant, Vβ-CDR3 95Q to P (protein)
TCR alpha: AQKITQTQPGMFVQEKEAVTLDCTYDTSDPSYGLFWYKQPSSGEMIFLIYQGSYDQQNATEGRYSLNFQKARKSANLVISASQLGDSAMYFCAMRERTGTASKLTFGTGTRLQVTLDIQNPEPAVYQLKDPRSQDSTLCLFTDFDSQINVPKTMESGTFITDKTVLDMKAMDSKSNGAIAWSNQTSFTCQDIFKETNATYPSSDVPCDATLTEKSFETDMNLNFQNLSVMGLRILLLKVAGFNLLMTLRLWSS
TCR beta: DVKVTQSSRYLVKRTGEKVFLECVQDMDHENMFWYRQDPGLGLRLIYFSYDVKMKEKGDIPEGYSVSREKKERFSLILESASTNQTSMYLCASSPTVPPQHFGDGTRLSILEDLRNVTPPKVSLFEPSKAEIANKQKATLVCLARGFFPDHVELSWWVNGKEVHSGVSTDPQAYKESNYSYCLSSRLRVSATFWHNPRNHFRCQVQFHGLSEEDKWPEGSPKPVTQNISAEAWGRADCGITSASYQQGVLSATILYEILLGKATLYAVLVSTLVVMAMVKRKNS
B8: β95Q-M: B8.2.4 TCR point mutant, Vβ-CDR3 95Q to M; CDR3β ASSMTVPPQH (protein)
TCR alpha: AQKITQTQPGMFVQEKEAVTLDCTYDTSDPSYGLFWYKQPSSGEMIFLIYQGSYDQQNATEGRYSLNFQKARKSANLVISASQLGDSAMYFCAMRERTGTASKLTFGTGTRLQVTLDIQNPEPAVYQLKDPRSQDSTLCLFTDFDSQINVPKTMESGTFITDKTVLDMKAMDSKSNGAIAWSNQTSFTCQDIFKETNATYPSSDVPCDATLTEKSFETDMNLNFQNLSVMGLRILLLKVAGFNLLMTLRLWSS
TCR beta: DVKVTQSSRYLVKRTGEKVFLECVQDMDHENMFWYRQDPGLGLRLIYFSYDVKMKEKGDIPEGYSVSREKKERFSLILESASTNQTSMYLCASSMTVPPQHFGDGTRLSILEDLRNVTPPKVSLFEPSKAEIANKQKATLVCLARGFFPDHVELSWWVNGKEVHSGVSTDPQAYKESNYSYCLSSRLRVSATFWHNPRNHFRCQVQFHGLSEEDKWPEGSPKPVTQNISAEAWGRADCGITSASYQQGVLSATILYEILLGKATLYAVLVSTLVVMAMVKRKNS
B9: β95Q-W: B8.2.4 TCR point mutant, Vβ-CDR3 95Q to W; CDR3β ASSWTVPPQH (protein)
TCR alpha: AQKITQTQPGMFVQEKEAVTLDCTYDTSDPSYGLFWYKQPSSGEMIFLIYQGSYDQQNATEGRYSLNFQKARKSANLVISASQLGDSAMYFCAMRERTGTASKLTFGTGTRLQVTLDIQNPEPAVYQLKDPRSQDSTLCLFTDFDSQINVPKTMESGTFITDKTVLDMKAMDSKSNGAIAWSNQTSFTCQDIFKETNATYPSSDVPCDATLTEKSFETDMNLNFQNLSVMGLRILLLKVAGFNLLMTLRLWSS
TCR beta: DVKVTQSSRYLVKRTGEKVFLECVQDMDHENMFWYRQDPGLGLRLIYFSYDVKMKEKGDIPEGYSVSREKKERFSLILESASTNQTSMYLCASSWTVPPQHFGDGTRLSILEDLRNVTPPKVSLFEPSKAEIANKQKATLVCLARGFFPDHVELSWWVNGKEVHSGVSTDPQAYKESNYSYCLSSRLRVSATFWHNPRNHFRCQVQFHGLSEEDKWPEGSPKPVTQNISAEAWGRADCGITSASYQQGVLSATILYEILLGKATLYAVLVSTLVVMAMVKRKNS

This series relates to murine TCRβ constant region. Put plainly: mTCRβ expression detection on Jurkat-NFAT-Luc cells. The class given is cell-based. The conditions noted are these: TCR mutant transduced Jurkat-NFAT-Luc cells.
Molecule B1 gave a mTCRβ % of 68.6%.

In turn, B2 displayed a mTCRβ % of 73.6%.

As for B3, the mTCRβ % is on record as 62.7%.

Consider B4, for which the mTCRβ % is on record as 77.3%.

With B5, the mTCRβ % came out at 75.1%.

B6 registered a mTCRβ % of 66.8%.

For B7, the mTCRβ % came to 76.8%.

B8 yielded a mTCRβ % of 82.1%.

Regarding B9, the mTCRβ % stood at 78.2%.

For the origin of these results see patent publication US20240123070A1, “EPITOPE PEPTIDE OF RAS G13D MUTANT AND T CELL RECEPTOR RECOGNIZING RAS G13D MUTANT” (SHANGHAI GENBASE BIOTECHNOLOGY CO., LTD., priority 2021, published 2024).
